Results are given in words; binding and its absence hold for the method and conditions named. For some assays here: Where a sequence is shown, tags or fusion partners need not be part of it.
T1: GRF6 (14-3-3ƛ) (Arabidopsis thaliana) (UniProt P48349)
T1 sequence: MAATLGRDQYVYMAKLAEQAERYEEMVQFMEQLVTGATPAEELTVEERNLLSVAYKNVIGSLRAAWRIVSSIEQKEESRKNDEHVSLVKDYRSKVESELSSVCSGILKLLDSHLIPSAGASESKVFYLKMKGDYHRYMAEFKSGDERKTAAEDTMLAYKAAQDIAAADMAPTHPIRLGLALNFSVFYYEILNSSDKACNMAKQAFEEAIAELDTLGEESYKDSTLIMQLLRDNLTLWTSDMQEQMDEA

Amino acid sequences for entries named in this document (tags omitted).
UniProt Q96299: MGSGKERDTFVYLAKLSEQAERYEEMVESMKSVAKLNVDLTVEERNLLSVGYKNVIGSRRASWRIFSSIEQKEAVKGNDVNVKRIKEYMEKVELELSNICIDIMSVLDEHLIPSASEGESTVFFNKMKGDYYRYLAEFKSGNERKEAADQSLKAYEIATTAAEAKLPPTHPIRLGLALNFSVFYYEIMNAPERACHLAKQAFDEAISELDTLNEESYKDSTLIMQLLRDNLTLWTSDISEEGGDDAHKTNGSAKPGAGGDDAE
UniProt Q9SXZ2: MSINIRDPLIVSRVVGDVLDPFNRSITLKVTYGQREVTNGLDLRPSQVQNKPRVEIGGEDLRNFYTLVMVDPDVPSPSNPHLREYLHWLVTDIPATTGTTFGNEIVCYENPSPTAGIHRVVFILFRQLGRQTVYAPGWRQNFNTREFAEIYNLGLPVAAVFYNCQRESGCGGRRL

T2: GRF10 (14-3-3ε) (Arabidopsis thaliana) (UniProt P48347)
T2 sequence: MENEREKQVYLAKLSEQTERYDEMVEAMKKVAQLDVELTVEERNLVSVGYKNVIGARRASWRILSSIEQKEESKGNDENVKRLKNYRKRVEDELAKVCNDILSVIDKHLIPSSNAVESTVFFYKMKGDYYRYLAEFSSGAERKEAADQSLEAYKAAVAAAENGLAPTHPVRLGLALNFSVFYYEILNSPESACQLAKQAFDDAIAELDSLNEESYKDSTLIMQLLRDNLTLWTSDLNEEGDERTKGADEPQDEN

T3: GRF2 (14-3-3ω) (Arabidopsis thaliana) (UniProt Q01525)
T3 sequence: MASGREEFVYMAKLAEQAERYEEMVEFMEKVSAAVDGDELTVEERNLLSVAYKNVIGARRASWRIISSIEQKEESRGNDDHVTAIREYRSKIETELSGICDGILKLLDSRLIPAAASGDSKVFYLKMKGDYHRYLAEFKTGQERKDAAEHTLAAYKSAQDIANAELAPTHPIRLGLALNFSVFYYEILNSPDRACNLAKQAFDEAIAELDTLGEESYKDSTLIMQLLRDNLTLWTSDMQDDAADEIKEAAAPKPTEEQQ

T4: GRF7 (14-3-3ν), recombinant (Arabidopsis thaliana, UniProt Q96300 1-265)
T4 construct: GRF7 (14-3-3ν), Arabidopsis thaliana; cloned into pMAL-c5X-His or a modified pMAL-c5X vector; also called GRF7-6His; source: E. coli, purified (Ni-NTA, size-exclusion chromatography)
T4 sequence (looked up): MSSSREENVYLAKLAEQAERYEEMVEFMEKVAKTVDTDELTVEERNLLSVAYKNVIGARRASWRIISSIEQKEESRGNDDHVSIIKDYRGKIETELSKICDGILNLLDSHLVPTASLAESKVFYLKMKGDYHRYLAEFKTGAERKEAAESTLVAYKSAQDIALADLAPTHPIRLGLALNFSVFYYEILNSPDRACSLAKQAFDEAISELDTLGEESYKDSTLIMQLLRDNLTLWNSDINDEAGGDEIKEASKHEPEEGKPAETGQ

B1: MBP-FD^(2–285 (T282A)) (protein, UniProt Q84JK2 2-285)
chain: LSSAKHQRNHRLSATNKNQTLTKVSSISSSSPSSSSSSSSTSSSSPLPSQDSQAQKRSLVTMEEVWNDINLASIHHLNRHSPHPQHNHEPRFRGQNHHNQNPNSIFQDFLKGSLNQEPAPTSQTTGSAPNGDSTTVTVLYSSPFPPPATVLSLNSGAGFEFLDNQDPLVTSNSNLHTHHHLSNAHAFNTSFEALVPSSSFGKKRGQDSNEGSGNRRHKRMIKNRESAARSRARKQAYTNELELEVAHLQAENARLKRQQDQLKMAAAIQQPKKNTLQRSSAAPF

How the values were obtained:
Assay in all cases: SEC; gel filtration of mixed purified proteins without DNA, fractions analysed on gel; both purified
[1] = target: T1, GRF6 (14-3-3ƛ) (Arabidopsis thaliana)
[2] = target: GRF9 (14-3-3μ) (Arabidopsis thaliana) (UniProt Q96299)
[3] = target: T2, GRF10 (14-3-3ε) (Arabidopsis thaliana)
[4] = target: T3, GRF2 (14-3-3ω) (Arabidopsis thaliana)
[5] = target: T4, GRF7 (14-3-3ν), recombinant

Molecule | binding [1] | binding [2] | binding [3] | binding [4] | binding [5]
FT (FLOWERING LOCUS T), recombinant, used in gel filtration (from UniProt Q9SXZ2 1-175) | no binding | no binding | no binding | no binding | –
B1 | – | – | – | – | no binding
